*: point of attachment. Pbf = Cc1c(C)c(S(=O)(=O)*)c(C)c2c1OC(C)(C)C2; Octanoyl = CCCCCCCC(=O)*; Cbz = O=C(OCc1ccccc1)*; Boc = CC(C)(C)OC(=O)*; Bn = c1ccc(C*)cc1; NHBu = CCCCN*
Experiments:
[1] = general procedure: Fmoc solid-phase peptide synthesis; rink amide AM resin (0.68 mmol/g); PyBOP/HOBt/DIEA (SPPS); BOP/DIEA (solution phase)
peptide synthesis = conditions: coupling step, TFA
[2] = Fmoc solid-phase peptide synthesis; rink amine AM resin; PyBOP/HOBt/DIEA (SPPS); BOP/DIEA (solution phase); conditions: whole synthesis, scale 100 mg @ 0.68 mmol/g, TFA
[3] = late stage modification step, TFA
[4] = late stage modification step, trifluoroacetate salt
[5] = late stage modification step, TFA salt

Ac-Y(Bn)LPR(Pbf)P-NHBu
step yield [1, 3]: 94%

Octanoyl-Tyr(Bzl)-Leu-Pro-Arg-OMe trifluoroacetate
step yield [1, 4]: 58%

Octanoyl-Y(Bn)LPR(Pbf)-OMe
step yield ([1]; coupling step, TFA): 96%

Boc-Leu-Pro-Arg(bis-Cbz)-Pro-OMe
step yield (peptide synthesis): 95%

Ac-Tyr(Bzl)-Leu-Pro-Orn(Boc)-Pro-NH(CH2)3Ph
step yield (peptide synthesis): 100%

Octanoyl-Tyr(Bzl)-Leu-Hyp-Arg(Boc)2N(CH2)5
step yield ([1]; coupling step, TFA): 84%

Ac-Tyr(Bzl)-Leu-Pro-Orn-Pro-NH(CH2)3Ph
step yield [1, 3]: 64%

Ac-Tyr(Bzl)-Leu-Pro-Orn(2-pyrimidine)-Pro-NH(CH2)3Ph
step yield (peptide synthesis): 50%

Ac-Tyr-Leu-Pro-Orn(Boc)-Pro-NH(CH2)3Ph
step yield [1, 3]: 45%

Ac-Y(Bn)LPR(Pbf)-OH
step yield [1, 3]: 83%

Ac-Tyr(Bzl)-Leu-Pro-Arg(Pbf)-N(CH2)5
step yield [1, 3]: 100%

Boc-Tyr(Bzl)-Leu-Pro-Arg(bis-Cbz)-Pro-OMe
step yield (peptide synthesis): 100%

Octanoyl-Y(Bn)LPR(Pbf)-OH
step yield [1, 3]: 92%

Ac-Y(Bn)LPR(Pbf)P-OMe
step yield (peptide synthesis): 88%

Octanoyl-Tyr(Bzl)-Leu-Pro-Arg-N(CH2)5 trifluoroacetate
step yield [1, 4]: 28%

Ac-Tyr-Leu-Pro-Arg-N(CH2)5.TFA
step yield [1, 5]: 81%

Boc-Tyr-Leu-Pro-Arg-Pro-NH(CH2)3Ph
step yield [1, 3]: 39%

Ac-Tyr-Leu-Pro-Arg-Pro-NHBu.TFA
step yield [1, 5]: 63%

Octanoyl-Tyr(Bzl)-Leu-Hyp-ArgN(CH2)5 trifluoroacetate
step yield [1, 4]: 48%

Ac-Y(Bn)LPR(Pbf)P-OH
step yield [1, 3]: 90%

Ac-Tyr-Leu-pro-Arg-Pro-NH2
isolated mass [2]: 15.2 mg | isolated yield [2]: 36%

Ac-Tyr(Bzl)-Leu-Pro-Arg(Pbf)-Pro-NH(CH2)3Ph
step yield [1, 3]: 92%

Octanoyl-Tyr-Leu-Pro-Arg-N(CH2)5 trifluoroacetate
step yield [1, 4]: 18%

Ac-Y(Bn)LPR(Pbf)-OMe
step yield (peptide synthesis): 79%

Octanoyl-Tyr(Bzl)-Leu-Pro-Arg(Pbf)-N(CH2)5
step yield [1, 3]: 89%

3-(Octylamido)-nicotinoyl-Tyr(Bzl)-Leu-Pro-Arg-OMe trifluoroacetate
step yield [1, 4]: 45%

Boc-Tyr(Bzl)-Leu-Pro-Arg(Cbz)-Pro-NH(CH2)3Ph
step yield [1, 3]: 75%

Ac-Tyr-Leu-Pro-Arg-Pro-NH(CH2)3Ph.TFA
step yield [1, 5]: 56%

Ac-Tyr-Leu-Pro-Arg(Pbf)-N(CH2)5
step yield [1, 3]: 77%

Boc-Y(Bn)LPR(Cbz)P-OH
step yield [1, 3]: 70%

Octanoyl-(D)-Tyr(Bzl)-Leu-Pro-Arg-OMe trifluoroacetate
step yield [1, 4]: 13%

3-(Octylamido)-nicotinoyl-Tyr(Bzl)-Leu-Pro-Arg(Pbf)-OMe
step yield ([1]; coupling step, TFA): 93%

Ac-Tyr-Leu-Pro-Orn-Pro-NH(CH2)3Ph
step yield [1, 3]: 75%

— patent US20100087466A1 (priority 2008, published 2010)
